# From the supplement of paper PMC11348887
# Where a name gives a salt, the structure may show the parent alone. Some of the results follow. Most entries show no effect beyond the scatter of the controls.
# Tested on: hPSC-derived cortical neurons (WA09)
# Experiment: KCl-induced FOS+/EGR-1+ double-positive nuclei fraction z-score (KCl minus unstimulated); higher = stronger activity-induced IEG response
# Settings: 5 µM; treatment: days 7-14 after plating, readout day 21
row,Compound,KCl-induced FOS+/EGR-1+ double-positive nuclei fraction z-score
1,CCNC(=O)c1noc(-c2cc(C(C)C)c(O)cc2O)c1-c1ccc(CN2CCOCC2)cc1,-1.31
2,CC(C)C[C@H](NP(=O)(O)O[C@@H]1O[C@@H](C)[C@H](O)[C@@H](O)[C@H]1O)C(=O)N[C@@H](Cc1c[nH]c2ccccc12)C(=O)O [Phosphoramidon Disodium Salt],0.518
3,OC[C@@H](O)[C@@H](O)CO [Erythritol],2.65
4,CN(Cc1ccc(C(C)(C)C)cc1)Cc1cccc2ccccc12 [Butenafine HCl],-0.676
5,COC(=O)Nc1nc2cc(C(=O)c3ccccc3)ccc2[nH]1 [Mebendazole],-0.33
6,CN1CCN(CCOc2cc(OC3CCOCC3)c3c(Nc4c(Cl)ccc5c4OCO5)ncnc3c2)CC1 [Saracatinib (AZD0530)],-0.644
7,CN(N=O)C(=O)NC1C(O)OC(CO)C(O)C1O (centres undefined) [Streptozotocin (STZ)],0.513
8,C[C@]12CCC(=O)C=C1CC[C@@H]1[C@@H]2[C@@H](O)C[C@@]2(C)[C@H]1CC[C@]2(O)C(=O)CO [Hydrocortisone],2.37
9,CC[C@H]1OC(=O)[C@H](C)[C@@H](O[C@H]2C[C@@](C)(OC)[C@@H](O)[C@H](C)O2)[C@H](C)[C@@H](O[C@@H]2O[C@H](C)C[C@H](N(C)C)[C@H]2O)[C@](C)(O)C[C@@H](C)C(=O)[C@H](C)[C@H]2OC(=O)O[C@@]21C [Erythromycin Cyclocarbonate],1.78
10,CCC(=O)OCC(=O)[C@@]1(OC(=O)CC)[C@@H](C)C[C@H]2[C@@H]3CCC4=CC(=O)C=C[C@]4(C)[C@@]3(F)[C@@H](O)C[C@@]21C [Betamethasone Dipropionate],-0.505
11,CC(=O)O[C@H]1C(=O)[C@@]2(C)[C@H]([C@H](OC(=O)c3ccccc3)[C@]3(O)C[C@H](OC(=O)[C@H](O)[C@@H](NC(=O)c4ccccc4)c4ccccc4)C(C)=C1C3(C)C)[C@]1(OC(C)=O)CO[C@@H]1C[C@@H]2O [Paclitaxel],-0.00939
12,CCCCN(Cc1ccc(C(=O)NO)cc1)C(=O)Nc1ccccc1 [Nexturastat A],0.337
13,Cc1ccc(NC(=O)c2ccc(CN3CCN(C)CC3)cc2)cc1Nc1nccc(-c2cccnc2)n1 [Imatinib (STI571)],1.69
14,CNCc1ccc(-c2cc(-c3nc(-c4ccc(S(=O)(=O)C(C)C)cc4)cnc3N)on2)cc1,0.0344
15,O=C(O)CNC(=O)c1nc(Cl)c2ccccc2c1O,0.211
16,CCCCCCCCCCCCCCCCCCOP(=O)([O-])OC1CC[N+](C)(C)CC1 [Perifosine (KRX-0401)],0.824
17,C[C@H]1O[C@H](O[C@H]2[C@H](O)[C@@H](O)[C@@H](O[C@H]3[C@H](O)[C@@H](O)C(O)O[C@@H]3CO)O[C@@H]2CO)[C@H](O)[C@@H](O)[C@@H]1N[C@H]1C=C(CO)[C@@H](O)[C@H](O)[C@H]1O (some centres undefined) [Acarbose],0.695
18,Cc1cc(OCCCS(C)(=O)=O)cc(C)c1-c1cccc(COc2ccc3c(c2)OC[C@H]3CC(=O)O)c1,1.1
19,CCOC(=O)[C@H](CCc1ccccc1)N[C@@H](C)C(=O)N1C(=O)N(C)C[C@H]1C(=O)O [Imidapril HCl],0.442
20,CCCC(=O)Nc1ccc(OCC(O)CNC(C)C)c(C(C)=O)c1 (centres undefined) [Acebutolol HCl],-0.179
21,CN1C(C(=O)Nc2ccccn2)=C(O)c2ccccc2S1(=O)=O [Piroxicam],-0.206
22,Cc1ccc(C(=O)c2ccc(CC(=O)O)n2C)cc1 [Tolmetin Sodium],-0.478
23,C[C@@H]1[C@H](O)[C@@H](C)/C=C/C=C/C=C/C=C/C=C/C=C/C=C/[C@H](O[C@@H]2O[C@H](C)[C@@H](O)[C@H](N)[C@@H]2O)C[C@@H]2O[C@](O)(C[C@@H](O)C[C@@H](O)[C@H](O)CC[C@@H](O)C[C@@H](O)CC(=O)O[C@H]1C)C[C@H](O)[C@H]2C(=O)O [Amphotericin B],0.649
24,[I-].[K+] [Potassium Iodide],-0.0743
25,CN(CCOc1ccc(CC2SC(=O)NC2=O)cc1)c1ccccn1 (centres undefined) [Rosiglitazone],0.647
26,CCn1c(-c2nonc2N)nc2c(C#CC(C)(C)O)ncc(OC[C@H]3CCCNC3)c21,-0.708
27,O=C(O)/C=C/c1ccc(Cn2ccnc2)cc1 [Ozagrel HCl],-0.195
28,NC(CO)(CO)CO [Trometamol],-0.0364
29,Nc1ccc(S(=O)(=O)Nc2ncccn2)cc1 [Sulfadiazine],0.693

# Part of the list above in order of formula weight, falling.
row,Compound,KCl-induced FOS+/EGR-1+ double-positive nuclei fraction z-score
17,C[C@H]1O[C@H](O[C@H]2[C@H](O)[C@@H](O)[C@@H](O[C@H]3[C@H](O)[C@@H](O)C(O)O[C@@H]3CO)O[C@@H]2CO)[C@H](O)[C@@H](O)[C@@H]1N[C@H]1C=C(CO)[C@@H](O)[C@H](O)[C@H]1O (some centres undefined) [Acarbose],0.695
14,CNCc1ccc(-c2cc(-c3nc(-c4ccc(S(=O)(=O)C(C)C)cc4)cnc3N)on2)cc1,0.0344
8,C[C@]12CCC(=O)C=C1CC[C@@H]1[C@@H]2[C@@H](O)C[C@@]2(C)[C@H]1CC[C@]2(O)C(=O)CO [Hydrocortisone],2.37
